Reference: PubChem BioAssay AID1259254 (NCATS, 2017)

Assay: 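Gene knock-downs that lead to re-replication, shown by excess G2 DNA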 (primary screen)
Cell system: human HCT116 colorectal cancer cells
Reagents: single siRNA against human genes
Time to read-out: 3 days
Read-out: 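Nuclei stained with Hoechst and imaged; cell-cycle phase assigned by DNA content; G2 share scaled per plate, non-targeting siRNA 0%, GMNN siRNA 100%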
Scale: G2 robust z-score and G2 cells, % of GMNN control: higher = more G2 cells, more excess DNA replication; raw share of cells in G2: higher = larger share of cells with G2 DNA content
Active means: 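An siRNA counts as active if its G2 robust z-score lies at least 5 MADs above the screen median; here such calls match roughly 38% of GMNN control or more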
This is a random part of about 59,000 reagents tested. About 1,550 of them (2.6%) count as active. 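G2 share is only a proxy for re-replication; each gene was hit by three separate siRNAs, and active genes were retested.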 Raw values are not corrected between plates. A number with no mark means an inactive call. The record does not give: the amount of reagent.

gene,PubChem SID,G2 robust z-score,"G2 cells, % of GMNN control",raw share of cells in G2 (%)
DOP1A,SID160735282,1.95,16.7,11.5
DOP1A,SID160735283,0.672,7.7,7.31
DOP1A,SID160735284,7.05 (active),52.6,22.8
SLC26A5,SID160731161,-0.307,0.807,6.25
SLC26A5,SID160765452,2.44,20.1,12.8
SLC26A5,SID160765453,3.2,25.5,13.6
SH2B1,SID160737354,-0.964,-3.81,2.98
SH2B1,SID160737355,-0.116,2.15,4.87
SH2B1,SID160737356,1.76,15.4,8.66
CAB39L,SID160750898,1.02,10.1,6.37
CAB39L,SID160750899,-0.483,-0.434,5.71
CAB39L,SID160750900,2.3,19.2,9.65
TTYH3,SID160724566,0.534,6.73,4.22
TTYH3,SID160750494,0.402,5.79,6.85
TTYH3,SID160750495,0.329,5.28,6.61
CDC42EP5,SID160724865,2.33,19.3,10.3
CDC42EP5,SID160724866,-1.19,-5.41,1.24
CDC42EP5,SID160724867,-0.347,0.529,3.25
BMF,SID160753698,-0.942,-3.66,2.53
BMF,SID160753699,-0.111,2.19,3.69
BMF,SID160753700,-0.157,1.86,3.52
CCR9,SID160729261,6.3 (active),47.3,22.8
CCR9,SID160729262,-0.639,-1.53,3.98
CCR9,SID160729264,-0.56,-0.971,2.97
SENP5,SID160761193,1.58,14.1,11.5
SENP5,SID160761194,-0.0257,2.79,5.39
SENP5,SID160761195,-0.497,-0.53,4.06
ZNF836,SID160759957,0.0194,3.1,4.71
ZNF836,SID160759958,0.0867,3.58,4.16
ZNF836,SID160759959,-0.376,0.324,2.86
ZMAT2,SID160759338,1.25,11.7,9
ZMAT2,SID160759339,1.17,11.2,11.3
ZMAT2,SID160759340,0.819,8.73,8.37
JADE1,SID160749857,3.95,30.8,15.3
JADE1,SID160749858,4.25,32.8,16.9
JADE1,SID160749859,4.57,35.1,20
IL22RA1,SID160746940,-0.405,0.119,5.7
IL22RA1,SID160746941,-1.13,-5,2.58
IL22RA1,SID160746942,0.175,4.2,5.75
WASH5P,SID160765464,-0.103,2.24,4.54
WASH5P,SID160765465,-0.929,-3.57,1.85
WASH5P,SID160765466,0.908,9.36,8.65
LINC01599,SID160760668,-0.399,0.162,3.66
LINC01599,SID160760669,-0.371,0.357,3.08
LINC01599,SID160760670,-0.354,0.48,2.91
URI1,SID160720678,-1.34,-6.48,2.26
URI1,SID160720679,-0.378,0.311,4.02
URI1,SID160720680,-0.22,1.42,3.85
TNFRSF9,SID160775797,0.542,6.78,7.51
TNFRSF9,SID160775798,2.86,23.1,14.5
TNFRSF9,SID160775799,-0.902,-3.38,2.96
STEAP2,SID160762660,-0.272,1.05,4.02
STEAP2,SID160762661,1.38,12.7,7.96
STEAP2,SID160762662,-0.471,-0.343,3.16
PIP4P2,SID160743759,1.03,10.2,8.44
PIP4P2,SID160743760,-0.598,-1.24,3.62
PIP4P2,SID160743761,0.098,3.66,4.3
VANGL2,SID160745837,-0.651,-1.61,3.71
VANGL2,SID160745838,6.6 (active),49.4,28.1
VANGL2,SID160745839,-0.0433,2.66,3.87
SELENOV,SID160765062,0.716,8.01,6.74
SELENOV,SID160765063,0.157,4.07,5.04
SELENOV,SID160765064,1.16,11.1,8.67
SLC13A2,SID160721374,-0.702,-1.97,3.64
SLC13A2,SID160721375,-0.0141,2.87,6.27
SLC13A2,SID160721376,0.946,9.62,8.15
TMEM44,SID160754435,-0.42,0.013,4.09
TMEM44,SID160754436,0.871,9.1,5.85
TMEM44,SID160754437,-0.0362,2.71,3.78
UQCC2,SID160735091,-0.582,-1.13,2.06
UQCC2,SID160752098,-0.482,-0.424,3.97
UQCC2,SID160752100,-0.34,0.578,3.63
MEAK7,SID160746628,-0.339,0.586,4.58
MEAK7,SID160746629,-0.777,-2.5,3.27
MEAK7,SID160746630,-0.613,-1.35,2.6
SLC2A10,SID160750667,0.0143,3.07,6.71
SLC2A10,SID160750668,1.06,10.5,7.98
SLC2A10,SID160750669,6.07 (active),45.7,21.7
ZBED8,SID160747273,0.591,7.12,7.68
ZBED8,SID160747274,-0.862,-3.1,3.22
ZBED8,SID160747275,-1.09,-4.7,1.46
PDLIM1,SID160721525,0.976,9.83,9
PDLIM1,SID160721526,-0.233,1.33,5.18
PDLIM1,SID160721527,-1.28,-6.03,3.14
C19orf53,SID160733023,-0.694,-1.92,2.65
C19orf53,SID160738907,1.4,12.8,8.75
C19orf53,SID160738908,0.66,7.61,7.43

Called active, among the entries above:
gene,PubChem SID,G2 robust z-score,"G2 cells, % of GMNN control",raw share of cells in G2 (%)
DOP1A,SID160735284,7.05 (active),52.6,22.8
CCR9,SID160729261,6.3 (active),47.3,22.8
VANGL2,SID160745838,6.6 (active),49.4,28.1
SLC2A10,SID160750669,6.07 (active),45.7,21.7
